Test results reported in US20180256699A1.

Tests used:
[1] = biological target: ACT of Bordetella bronchiseptica (Bordetella bronchiseptica); assay: ELISA on RTX from different Bordetella species (FIG. 13A)
[2] = biological target: ACT of Bordetella parapertussis (Bordetella parapertussis); assay: as above

B1: M1H5 antibody (format not stated) (antibody, V domains shown)
VH: EVNLVESGGDLVKPGGSLKLSCAASGFTFSSYGMSWVRQTPDKRLEWVATISSGGTYTYYPDSVKGRFTISRDNAKNTLYLQMSSLKSEDTAMYYCAREIMRGGGYYFDYWSQGTTLTVSS
VL: DIQMIQSTSSLSASLGDRVTISCRASQDISNYLNWYQQKPDGTVKLLIYYTSRLHSGVPSRFSGSGSGTDYSLTISNLEQEDIATYFCQQGNTLPYTFGGGTKLEIKR
With B1 the binding [1] was “no binding” and the binding [2] was “no binding”.

These are yes or no findings as the source states them, for the method shown.
